# In patent publication US20110117086A1:
# Results are given in words; binding and its absence hold for the method and conditions named.
# What was measured:
# [1] = target: T1, C-terminal flanking peptide (CTFP) (human); test: ELISA on coated antigen, DO 492nm, n=2
# T1 sequence (peptide): SAEDEN
# [2] = target: T2, Glycine-extended gastrin 17 (G17-Gly) (human); test: ELISA on coated antigen, DO 492nm, n=2
# T2 sequence (peptide): QGPWLEEEEEAYGWMDFG
# [3] = target: T3, Human amidated gastrin I (G-17) (human); test: ELISA on coated antigen, DO 492nm, n=2
# T3 sequence (peptide, C-terminal amide): QGPWLEEEEEAYGWMDF
# [4] = target: T1, C-terminal flanking peptide (CTFP) (human); test: ELISA on coated antigen, OD 492 nm (axis untitled)
# [5] = target: T2, Glycine-extended gastrin 17 (G17-Gly) (human); test: ELISA on coated antigen, OD 492 nm (axis untitled)
# [6] = target: T3, Human amidated gastrin I (G-17) (human); test: ELISA on coated antigen, OD 492 nm (axis untitled)
# [7] = target: T1, C-terminal flanking peptide (CTFP) (human); test: condition: antibody 3 ng/ml (expt 1) and 1 ng/mL (expt 2); peptide 50 and 250 ng; ELISA, peptide coated
# [8] = target: T2, Glycine-extended gastrin 17 (G17-Gly) (human); test: as above
# [9] = target: T3, Human amidated gastrin I (G-17) (human); test: as above
# [10] = target: T1, C-terminal flanking peptide (CTFP) (human); test: condition: antibody 0.3 ng/mL; peptide 50 and 250 ng; ELISA, peptide coated
# [11] = target: T2, Glycine-extended gastrin 17 (G17-Gly) (human); test: as above
# [12] = target: T3, Human amidated gastrin I (G-17) (human); test: as above
# [13] = target: T1, C-terminal flanking peptide (CTFP) (human); test: ELISA, peptide coated
# [14] = target: T2, Glycine-extended gastrin 17 (G17-Gly) (human); test: ELISA, peptide coated
# [15] = target: T3, Human amidated gastrin I (G-17) (human); test: ELISA, peptide coated
Binder,binding [1],binding [2],binding [3],binding [4],binding [5],binding [6],binding [7],binding [8],binding [9],binding [10],binding [11],binding [12],binding [13],binding [14],binding [15]
"Anti-hPG MAb 3 (antibody, V domains shown) VH: EVQLQQSGTVLARPGASVKMSCKASGYIFTSYWVHWVKQRPGQGLEWIGGFYPGNSDSRYNQKFKGKATLTAVTSASTAYMDLSSLTNEDSAVYFCTRRDSPQYWGQGTTLTVSS VL: DVLMTQTPLSLPVSLGDQASISCRSSQSIVHSNGNTYLEWYLQKPGQSPKLLIYKVSNRFSGVPDRFSGSGSGTDFTLKISRLEAEDLGVYYCFQGSHVPFTFGGGTKLEIK",no binding (tested: 250 ng coated (MAb 3 at 3 ng/ml)),no binding (tested: 250 ng coated (MAb 3 at 3 ng/ml)),no binding (tested: 250 ng coated (MAb 3 at 3 ng/ml)),no binding (tested: 250 ng coated (MAb 1 ng/ml)),no binding (tested: 250 ng coated (MAb 1 ng/ml)),no binding (tested: 250 ng coated (MAb 1 ng/ml)),no binding,no binding,no binding,,,,,,
"Anti-hPG MAb 8 (antibody, V domains shown) VH: EVQLVESGGGLVKPGGSLKLSCAASGFTFTTYAMSWVRQTPEKRLEWVATISSGGTYTYYPDSVKGRFTISRDNAKNALYLQMSSLRSEDTAMYYCATQGNYSLDFWGQGTSLTVSS VL: DIVMTQAASSNPVTLGTSASISCRSSKSLRHTKGITFLYWYLQKPGQSPQLLIYQMSNLASGVPDRFSSSGSGTDFTLRISRVEAEDLGVYYCAQNLELPLTFGAGTKLELK",,,,"no binding (tested: 250 ng coated (MAb 0,3 ng/ml))","no binding (tested: 250 ng coated (MAb 0,3 ng/ml))","no binding (tested: 250 ng coated (MAb 0,3 ng/ml))",,,,no binding,no binding,no binding,,,
"Anti-hPG MAb 4 (antibody, V domains shown) VH: QVQLQQSGAELMKPGASVKISCKATGYTFSSSWIEWLKQRPGHGLEWIGEFLPGSGSTDYNEKFKGKATFTADTSSDTAYMLLSSLTSEDSAVYYCATDGNYDWFAYWGQGTLVTVSA VL: DLVMTQTPLSLPVSLGDQASISCRSSQSLVHSSGVTYLHWYLQKPGQSPKLLIYKVSNRFSGVPDRFSGSGSGTDFTLKISRVEAEDLGVYFCSQSTHVPPTFGSGTKLEIK",no binding (tested: 250 ng coated (MAb 4 at 1 µg/ml)),no binding (tested: 250 ng coated (MAb 4 at 1 µg/ml)),no binding (tested: 250 ng coated (MAb 4 at 1 µg/ml)),,,,,,,,,,no binding (tested: antibody 1 µg/ml; peptide 50 and 250 ng),no binding (tested: antibody 1 µg/ml; peptide 50 and 250 ng),no binding (tested: antibody 1 µg/ml; peptide 50 and 250 ng)
"Anti-hPG MAb 19 (antibody, V domains shown) VH: DVQLQESGPGLVKPSQSLSLTCTVTGYSITSDYAWNWIRQFPGNKLEWMGYISFSGYTSYNPSLKSRISVTRDTSRNQFFLQLTSVTTEDTATYYCAREVNYGDSYHFDYWGQGTIVTVSS VL: QLALTQSSSASFSLGASAKLTCTLSSQHRTYTIEWYQQQSLKPPKYVMEVKKDGSHSTGHGIPDRFSGSSSGADRYLSISNIQPEDEAIYICGVGDAIKGQSVFVFGGGTKVTVL",,,,no binding (tested: 250 ng coated (MAb 1 ng/ml)),no binding (tested: 250 ng coated (MAb 1 ng/ml)),no binding (tested: 250 ng coated (MAb 1 ng/ml)),,,,,,,no binding (tested: antibody 1 ng/mL; peptide 50 and 250 ng),no binding (tested: antibody 1 ng/mL; peptide 50 and 250 ng),no binding (tested: antibody 1 ng/mL; peptide 50 and 250 ng)
